Ends that are not written are not given here.
Key:
[1] = general procedure: peptide synthesis; chloro trityl chloride resin; conditions: whole synthesis
[2] = general procedure: peptide synthesis; chloro trityl chloride resin (CTL resin, Nova Biochem Cat No. 01-64-0021); conditions: whole synthesis, scale of the general procedure 700 mg resin

Row | Sequence | crude mass [1] [g] | crude yield ([1]; scale of the general procedure 700 mg resin) [%] | crude yield [2] [%]
1 | NCSNMICEIITH (cysteine pairing not given here) | 0.5 | 89.9 | –
2 | RRKLTFYLKTLE | – | – | 92.1
